Measurements reported in PubChem BioAssay AID1259424 (University of Nebraska Medical Center, 2018)
The whole screen tested about 14,000 reagents; shown is a part drawn at random. 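Higher correlation or smaller distance means closer resemblance to KSR1 loss; control wells, including KSR1 knockdowns, recur on many plates.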 Not stated in the record: the time to read-out.

Aim: 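Find knockdowns that reproduce the expression shifts seen after KSR1 loss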 (primary screen)
Cell system: human HCT116 colon cancer cells
Reagents: siRNA pool against human genes, 50 nM
Measured: 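Log2 levels of six mRNAs (branched-DNA multiplex), adjusted by two reference genes and the non-targeting median, then scored against the average KSR1 knockdown pattern as Pearson r and euclidean distance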
Reading the numbers: mean correlation with KSR1 profile and KSR1 correlation: higher = expression change more like KSR1 knockdown; mean distance from KSR1 profile: higher = expression change less like KSR1 knockdown

mean correlation with KSR1 profile	mean distance from KSR1 profile	KSR1 correlation, replicate 1	KSR1 correlation, replicate 2	KSR1 correlation, replicate 3	gene
0.412	1.92	0.384	0.578	0.367	TAS2R19
-0.388	2.78	-0.0731	-0.69	-0.453	SKAP1
0.855	0.507	0.814	0.8	0.931	RAB21
0.215	2.99	0.539	0.295	-0.104	HCFC2
0.732	0.926	0.758	0.701	0.545	POSTN
0.528	1.85	0.429	0.417	0.565	BLTP1
-0.298	1.82	-0.402	-0.171	-0.041	SMIM8
0.208	1.33	0.127	0.391	0.143	TAC3
-0.26	2.23	-0.199	-0.583	-0.0177	SV2B
-0.511	5.89	-0.397	-0.452	-0.446	EIF3L
-0.269	3.45	-0.029	-0.248	-0.349	COXFA4
-0.274	3.07	-0.652	-0.543	-0.0466	LSM3
-0.0529	1.49	-0.157	-0.0671	0.0229	MGAT4A
0.474	1.98	0.506	0.396	0.431	GGCX
0.299	1.76	0.242	0.284	0.17	NEDD4L
0.207	1.92	-0.0176	0.233	0.133	EEPD1
0.683	1.82	0.677	0.706	0.596	SIM2
-0.541	2.84	-0.648	-0.564	-0.584	PRAME
0.483	1.87	0.308	0.351	0.665	LCP1
0.0504	2.35	0.0365	-0.164	0.113	CRK
0.00544	2.07	-0.114	0.291	0.0299	IFT56
-0.71	1.99	-0.659	-0.481	-0.486	HEMK1
-0.296	3.54	-0.639	-0.432	0.213	AGXT
-0.49	1.98	-0.269	-0.37	-0.555	C1orf159
0.378	2.3	0.404	0.475	0.336	MAP6D1
-0.468	3.09	-0.141	-0.567	-0.519	KIT
-0.0965	2.09	-0.375	0.0345	0.0346	PODNL1
-0.284	1.28	-0.241	-0.0359	-0.462	KIAA1614
0.00144	1.91	0.0959	-0.134	-0.0328	BGN
-0.0901	3.19	-0.135	-0.0647	-0.176	LHPP
-0.195	0.988	-0.0387	-0.68	0.304	ZNF823
0.261	3.48	0.503	0.274	0.0423	SERPINE2
-0.309	2.28	-0.264	-0.114	-0.364	PSD3
0.132	1.71	-0.537	-0.402	0.417	AIDA
-0.51	2.98	-0.489	-0.504	-0.407	RAB3IL1
0.124	0.926	-0.267	0.398	0.127	IFNA5
-0.403	2.59	-0.652	0.091	-0.505	PLXNB1
0.581	2.22	0.541	0.646	0.0907	MAP3K19
0.28	2.48	0.2	0.393	0.506	ZNF442
-0.679	1.28	-0.626	-0.709	-0.667	GAS7
0.164	4.13	-0.187	-0.0782	0.134	TMOD3
0.366	1.9	0.299	0.387	0.379	RAB9B
-0.33	2.26	-0.336	-0.409	-0.0836	ATP1B4
-0.323	1.93	-0.494	-0.224	-0.129	CDH26
0.797	1.08	0.984	0.509	0.547	RAP1A
0.364	1.84	0.177	0.142	0.515	DNAJC30
-0.321	4.33	-0.396	-0.306	-0.19	ANGPTL8
0.208	3.07	-0.00272	0.214	0.0772	RPUSD4
-0.075	2.38	0.0549	-0.302	-0.187	MGC13053 (retired record)
0.29	2.45	0.337	0.162	0.477	GHRH

Reformatted: results already given
{"gene":"AGXT","mean correlation with KSR1 profile":-0.296,"mean distance from KSR1 profile":3.54,"KSR1 correlation, replicate 1":-0.639,"KSR1 correlation, replicate 2":-0.432,"KSR1 correlation, replicate 3":0.213}
{"gene":"C1orf159","mean correlation with KSR1 profile":-0.49,"mean distance from KSR1 profile":1.98,"KSR1 correlation, replicate 1":-0.269,"KSR1 correlation, replicate 2":-0.37,"KSR1 correlation, replicate 3":-0.555}
{"gene":"MAP6D1","mean correlation with KSR1 profile":0.378,"mean distance from KSR1 profile":2.3,"KSR1 correlation, replicate 1":0.404,"KSR1 correlation, replicate 2":0.475,"KSR1 correlation, replicate 3":0.336}
{"gene":"KIT","mean correlation with KSR1 profile":-0.468,"mean distance from KSR1 profile":3.09,"KSR1 correlation, replicate 1":-0.141,"KSR1 correlation, replicate 2":-0.567,"KSR1 correlation, replicate 3":-0.519}
{"gene":"PODNL1","mean correlation with KSR1 profile":-0.0965,"mean distance from KSR1 profile":2.09,"KSR1 correlation, replicate 1":-0.375,"KSR1 correlation, replicate 2":0.0345,"KSR1 correlation, replicate 3":0.0346}
